Measurements taken from the supplement of paper PMC8728848.
The other results are listed elsewhere or left out.

How the values were obtained:
Test in all cases: glycan array binding signal (z-score within array); higher = stronger binding
Conditions in all cases: glycan notation: IUPAC condensed, linker removed
[1] = biological target: Gal(a1-3)Gal(b1-4)GlcNAc(b1-2)Man
In short: (§1)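 Columns mapping to the same glycan were averaged after glycan names were converted to IUPAC-condensed notation. The data come from 3228 arrays in the Consortium for Functional Glycomics database, limited to those with an available protein sequence. Binding is reported as a within-array Z-score averaged across arrays of one protein sequence and across linkers.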

[2] = biological target: Gal(a1-3)Gal(b1-4)GlcNAc(b1-2)Man(a1-3)[Gal(a1-3)Gal(b1-4)GlcNAc(b1-2)Man(a1-6)]Man(b1-4)GlcNAc(b1-4)GlcNAc
In short: as §1

[3] = biological target: Gal(a1-3)Gal(b1-4)GlcNAc(b1-3)GalNAc
In short: as §1

[4] = biological target: Gal(a1-3)Gal(b1-4)GlcNAc(b1-6)GalNAc
In short: as §1

[5] = biological target: Gal(a1-3)Gal(b1-4)[Fuc(a1-3)]GlcNAc
In short: as §1

[6] = biological target: Gal(a1-3)Gal(b1-4)[Fuc(a1-3)]GlcNAc(b1-2)Man(a1-3)[Gal(a1-3)Gal(b1-4)[Fuc(a1-3)]GlcNAc(b1-2)Man(a1-6)]Man(b1-4)GlcNAc(b1-4)GlcNAc
In short: as §1

Gal(a1-3)GalNAc = biological target: Gal(a1-3)GalNAc
In short: as §1

[7] = biological target: Gal(a1-3)[Gal(a1-4)]Gal(b1-4)GlcNAc
In short: as §1

[8] = biological target: Gal(a1-4)Gal(b1-3)GlcNAc(b1-2)Man(a1-3)[Gal(a1-4)Gal(b1-3)GlcNAc(b1-2)Man(a1-6)]Man(b1-4)GlcNAc(b1-4)GlcNAc
In short: as §1

Gal(a1-4)Gal(b1-4)Glc = biological target: Gal(a1-4)Gal(b1-4)Glc
In short: as §1

Gal(a1-4)Gal(b1-4)GlcNAc = biological target: Gal(a1-4)Gal(b1-4)GlcNAc
In short: as §1

[9] = biological target: Gal(a1-4)Gal(b1-4)GlcNAc(b1-2)Man(a1-3)[Gal(a1-4)Gal(b1-4)GlcNAc(b1-2)Man(a1-6)]Man(b1-4)GlcNAc(b1-4)GlcNAc
In short: as §1

[10] = biological target: Gal(a1-4)Gal(b1-4)GlcNAc(b1-3)Gal(b1-4)Glc
In short: as §1

Gal(a1-4)GlcNAc = biological target: Gal(a1-4)GlcNAc
In short: as §1

Gal(a1-6)Glc = biological target: Gal(a1-6)Glc
In short: as §1

Gal(b1-2)Gal = biological target: Gal(b1-2)Gal
In short: as §1

Gal(b1-3)Gal = biological target: Gal(b1-3)Gal
In short: as §1

Gal(b1-3)Gal(b1-4)GlcNAc = biological target: Gal(b1-3)Gal(b1-4)GlcNAc
In short: as §1

Gal(b1-3)GalNAc = biological target: Gal(b1-3)GalNAc
In short: as §1

[11] = biological target: Gal(b1-3)GalNAc(a1-3)[Fuc(a1-2)]Gal(b1-4)Glc
In short: as §1

[12] = biological target: Gal(b1-3)GalNAc(a1-3)[Fuc(a1-2)]Gal(b1-4)GlcNAc
In short: as §1

Gal(b1-3)GalNAc(b1-3)Gal = biological target: Gal(b1-3)GalNAc(b1-3)Gal
In short: as §1

[13] = biological target: Gal(b1-3)GalNAc(b1-3)Gal(a1-4)Gal(b1-4)Glc
In short: as §1

[14] = biological target: Gal(b1-3)GalNAc(b1-4)Gal(b1-4)Glc
In short: as §1

[15] = biological target: Gal(b1-3)GalNAc(b1-4)[Neu5Ac(a2-3)]Gal(b1-4)Glc
In short: as §1

Gal(b1-3)GlcNAc = biological target: Gal(b1-3)GlcNAc
In short: as §1

[16] = biological target: Gal(b1-3)GlcNAc(a1-3)Gal(b1-4)GlcNAc
In short: as §1

[17] = biological target: Gal(b1-3)GlcNAc(a1-6)Gal(b1-4)GlcNAc
In short: as §1

Gal(b1-3)GlcNAc(b1-2)Man = biological target: Gal(b1-3)GlcNAc(b1-2)Man
In short: as §1

[18] = biological target: Gal(b1-3)GlcNAc(b1-2)Man(a1-3)[Gal(b1-3)GlcNAc(b1-2)Man(a1-6)]Man(b1-4)GlcNAc(b1-4)GlcNAc
In short: as §1

[19] = biological target: Gal(b1-3)GlcNAc(b1-2)Man(a1-3)[Gal(b1-3)GlcNAc(b1-2)Man(a1-6)]Man(b1-4)GlcNAc(b1-4)[Fuc(a1-6)]GlcNAc
In short: as §1

[20] = biological target: Gal(b1-3)GlcNAc(b1-2)Man(a1-3)[GlcNAc(b1-4)][Gal(b1-3)GlcNAc(b1-2)Man(a1-6)]Man(b1-4)GlcNAc(b1-4)GlcNAc
In short: as §1

[21] = biological target: Gal(b1-3)GlcNAc(b1-2)[Gal(b1-3)GlcNAc(b1-6)]Man(a1-6)[Gal(b1-3)GlcNAc(b1-2)Man(a1-3)]Man(b1-4)GlcNAc(b1-4)GlcNAc
In short: as §1

[22] = biological target: Gal(b1-3)GlcNAc(b1-3)Gal(b1-3)GlcNAc
In short: as §1

[23] = biological target: Gal(b1-3)GlcNAc(b1-3)Gal(b1-4)Glc
In short: as §1

[24] = biological target: Gal(b1-3)GlcNAc(b1-3)Gal(b1-4)GlcNAc
In short: as §1

[25] = biological target: Gal(b1-3)GlcNAc(b1-3)Gal(b1-4)GlcNAc(b1-2)Man(a1-3)[Gal(b1-3)GlcNAc(b1-3)Gal(b1-4)GlcNAc(b1-2)Man(a1-6)]Man(b1-4)GlcNAc(b1-4)GlcNAc
In short: as §1

[26] = biological target: Gal(b1-3)GlcNAc(b1-3)Gal(b1-4)GlcNAc(b1-2)[Gal(b1-3)GlcNAc(b1-3)Gal(b1-4)GlcNAc(b1-6)]Man(a1-6)[Gal(b1-3)GlcNAc(b1-3)Gal(b1-4)GlcNAc(b1-2)Man(a1-3)]Man(b1-4)GlcNAc(b1-4)[Fuc(a1-6)]GlcNAc
In short: as §1

[27] = biological target: Gal(b1-3)GlcNAc(b1-3)Gal(b1-4)GlcNAc(b1-3)Gal(b1-4)GlcNAc(b1-2)[Gal(b1-3)GlcNAc(b1-3)Gal(b1-4)GlcNAc(b1-3)Gal(b1-4)GlcNAc(b1-6)]Man(a1-6)[Gal(b1-3)GlcNAc(b1-3)Gal(b1-4)GlcNAc(b1-3)Gal(b1-4)GlcNAc(b1-2)Man(a1-3)]Man(b1-4)GlcNAc(b1-4)[Fuc(a1-6)]GlcNAc
In short: as §1

[28] = biological target: Gal(b1-3)GlcNAc(b1-3)Gal(b1-4)GlcNAc(b1-6)[Gal(b1-3)GlcNAc(b1-3)]Gal(b1-4)Glc
In short: as §1

[29] = biological target: Gal(b1-3)GlcNAc(b1-3)Gal(b1-4)[Fuc(a1-3)]GlcNAc
In short: as §1

[30] = biological target: Gal(b1-3)GlcNAc(b1-3)Gal(b1-4)[Fuc(a1-3)]GlcNAc(b1-6)[Gal(b1-3)GlcNAc(b1-3)]Gal(b1-4)Glc
In short: as §1

[31] = biological target: Gal(b1-3)GlcNAc(b1-3)GalNAc
In short: as §1

[32] = biological target: Gal(b1-3)GlcNAc(b1-6)Gal(b1-4)GlcNAc
In short: as §1

[33] = biological target: Gal(b1-3)GlcNAc(b1-6)GalNAc
In short: as §1

B1: Langerin K299A/K313A (Homo sapiens), Q9UJ71 (protein)
chain: STLNAQIPELKSDLEKASALNTKIRALQGSLENMSKLLKRQNDILQVVSQGWKYFKGNFYYFSLIPKTWYSAEQFCVSRNSHLTSVTSESEQEFLYKTAGGLIYWIGLTKAGMEGDWSWVDDTPFNKVQSARFWIPGEPNNAGNNEHCGNIAAPSLQAWNDAPCDATFLFICKRPYVPSEP
glycan array binding signal (z-score) [1]: -0.928
glycan array binding signal (z-score) [2]: 1.31
glycan array binding signal (z-score) [3]: -1.18
glycan array binding signal (z-score) [4]: -0.491
glycan array binding signal (z-score) [5]: -0.587
glycan array binding signal (z-score) [6]: 0.892
glycan array binding signal (z-score) (Gal(a1-3)GalNAc): -0.531
glycan array binding signal (z-score) [7]: 0.088
glycan array binding signal (z-score) [8]: 0.339
glycan array binding signal (z-score) (Gal(a1-4)Gal(b1-4)Glc): 2.29
glycan array binding signal (z-score) (Gal(a1-4)Gal(b1-4)GlcNAc): -0.009
glycan array binding signal (z-score) [9]: 0.783
glycan array binding signal (z-score) [10]: 1.5
glycan array binding signal (z-score) (Gal(a1-4)GlcNAc): -1.03
glycan array binding signal (z-score) (Gal(a1-6)Glc): -0.08
glycan array binding signal (z-score) (Gal(b1-2)Gal): 1.77
glycan array binding signal (z-score) (Gal(b1-3)Gal): -0.059
glycan array binding signal (z-score) (Gal(b1-3)Gal(b1-4)GlcNAc): -1.01
glycan array binding signal (z-score) (Gal(b1-3)GalNAc): -0.212
glycan array binding signal (z-score) [11]: -1.18
glycan array binding signal (z-score) [12]: -0.852
glycan array binding signal (z-score) (Gal(b1-3)GalNAc(b1-3)Gal): 0.002
glycan array binding signal (z-score) [13]: -0.916
glycan array binding signal (z-score) [14]: -0.214
glycan array binding signal (z-score) [15]: -0.669
glycan array binding signal (z-score) (Gal(b1-3)GlcNAc): -0.266
glycan array binding signal (z-score) [16]: -0.826
glycan array binding signal (z-score) [17]: 0.434
glycan array binding signal (z-score) (Gal(b1-3)GlcNAc(b1-2)Man): 0.874
glycan array binding signal (z-score) [18]: 2.15
glycan array binding signal (z-score) [19]: 0.26
glycan array binding signal (z-score) [20]: 1.8
glycan array binding signal (z-score) [21]: -0.363
glycan array binding signal (z-score) [22]: -1.02
glycan array binding signal (z-score) [23]: -1.06
glycan array binding signal (z-score) [24]: -0.981
glycan array binding signal (z-score) [25]: 0.001
glycan array binding signal (z-score) [26]: 2.32
glycan array binding signal (z-score) [27]: 1.66
glycan array binding signal (z-score) [28]: 0.104
glycan array binding signal (z-score) [29]: -0.406
glycan array binding signal (z-score) [30]: -1.06
glycan array binding signal (z-score) [31]: 0
glycan array binding signal (z-score) [32]: -0.297
glycan array binding signal (z-score) [33]: -0.535
